Results are given in words; binding and its absence hold for the method and conditions named. In cells and extracts the contact can be indirect.
Assays:
[1] = target: T1, apolipoprotein O-like protein (APOOL) (human (endogenous in HeLa)) (UniProt Q6UXV4); experiment: co-IP; endogenous proteins; HeLa mitochondria (250 µg) solubilized with digitonin (detergent:protein 4:1) at 4°C; 1 µg antibody against APOOL or Mitofilin, or preimmune serum, protein A beads; washed with PBS, 0.01% digitonin; eluted with 0.1 M citric acid; western blot
T1 sequence: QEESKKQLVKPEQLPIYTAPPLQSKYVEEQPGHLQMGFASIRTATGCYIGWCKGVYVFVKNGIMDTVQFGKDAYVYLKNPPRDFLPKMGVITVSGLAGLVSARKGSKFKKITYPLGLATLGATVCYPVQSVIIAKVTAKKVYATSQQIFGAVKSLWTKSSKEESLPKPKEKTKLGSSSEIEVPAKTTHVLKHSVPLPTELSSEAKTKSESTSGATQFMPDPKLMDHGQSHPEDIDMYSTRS

Chains of the proteins cited; added tags and fusions are not shown. Residues count along the entry.
UniProt P25705, residues 44-553: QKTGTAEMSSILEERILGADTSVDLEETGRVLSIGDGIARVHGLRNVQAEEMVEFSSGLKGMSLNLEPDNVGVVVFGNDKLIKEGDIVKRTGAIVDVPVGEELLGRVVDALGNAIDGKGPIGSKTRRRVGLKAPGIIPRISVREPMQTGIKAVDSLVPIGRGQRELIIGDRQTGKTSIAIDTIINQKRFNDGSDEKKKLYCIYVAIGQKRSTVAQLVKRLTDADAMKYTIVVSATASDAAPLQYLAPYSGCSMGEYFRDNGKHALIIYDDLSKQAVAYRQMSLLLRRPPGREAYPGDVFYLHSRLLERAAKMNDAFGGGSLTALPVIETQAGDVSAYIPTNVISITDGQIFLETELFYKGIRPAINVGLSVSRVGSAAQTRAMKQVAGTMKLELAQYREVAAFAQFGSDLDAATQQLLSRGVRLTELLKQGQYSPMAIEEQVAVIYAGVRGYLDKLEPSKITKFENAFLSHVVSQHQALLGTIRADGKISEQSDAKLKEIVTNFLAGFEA

[2] = target: T2, Mitofilin (human (endogenous in HeLa)) (UniProt Q16891); experiment: as above
T2 sequence: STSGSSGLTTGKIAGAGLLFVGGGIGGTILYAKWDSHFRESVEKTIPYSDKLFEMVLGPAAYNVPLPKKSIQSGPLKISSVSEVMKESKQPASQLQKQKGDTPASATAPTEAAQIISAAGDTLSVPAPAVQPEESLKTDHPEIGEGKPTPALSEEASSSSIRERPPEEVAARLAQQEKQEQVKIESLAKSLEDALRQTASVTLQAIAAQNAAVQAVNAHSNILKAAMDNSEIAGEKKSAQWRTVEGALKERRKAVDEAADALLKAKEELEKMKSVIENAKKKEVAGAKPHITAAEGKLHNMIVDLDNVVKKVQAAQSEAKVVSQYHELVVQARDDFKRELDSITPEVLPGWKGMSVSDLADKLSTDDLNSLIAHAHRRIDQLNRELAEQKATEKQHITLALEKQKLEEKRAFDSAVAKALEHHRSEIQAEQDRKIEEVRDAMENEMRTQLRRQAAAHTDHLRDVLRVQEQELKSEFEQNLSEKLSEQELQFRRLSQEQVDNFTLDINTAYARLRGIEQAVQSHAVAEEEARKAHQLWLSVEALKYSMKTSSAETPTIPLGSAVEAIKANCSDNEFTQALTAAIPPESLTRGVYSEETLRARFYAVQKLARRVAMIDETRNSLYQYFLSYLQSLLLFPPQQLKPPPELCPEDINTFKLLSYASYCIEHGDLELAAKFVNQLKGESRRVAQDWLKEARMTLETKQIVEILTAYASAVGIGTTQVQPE

subunit F1α of the F1FO ATP synthase (from UniProt P25705 44-553)
binding [1]: no binding
binding [2]: no binding

From PMC3660581
